Data on two substances can be found in article PMC11641854.

The chains behind the UniProt entries cited, without tags or fusion partners. Where a name states a change or a piece, a line headed by the entry shows the natural chain unless it says otherwise.
UniProt Q9M8T0: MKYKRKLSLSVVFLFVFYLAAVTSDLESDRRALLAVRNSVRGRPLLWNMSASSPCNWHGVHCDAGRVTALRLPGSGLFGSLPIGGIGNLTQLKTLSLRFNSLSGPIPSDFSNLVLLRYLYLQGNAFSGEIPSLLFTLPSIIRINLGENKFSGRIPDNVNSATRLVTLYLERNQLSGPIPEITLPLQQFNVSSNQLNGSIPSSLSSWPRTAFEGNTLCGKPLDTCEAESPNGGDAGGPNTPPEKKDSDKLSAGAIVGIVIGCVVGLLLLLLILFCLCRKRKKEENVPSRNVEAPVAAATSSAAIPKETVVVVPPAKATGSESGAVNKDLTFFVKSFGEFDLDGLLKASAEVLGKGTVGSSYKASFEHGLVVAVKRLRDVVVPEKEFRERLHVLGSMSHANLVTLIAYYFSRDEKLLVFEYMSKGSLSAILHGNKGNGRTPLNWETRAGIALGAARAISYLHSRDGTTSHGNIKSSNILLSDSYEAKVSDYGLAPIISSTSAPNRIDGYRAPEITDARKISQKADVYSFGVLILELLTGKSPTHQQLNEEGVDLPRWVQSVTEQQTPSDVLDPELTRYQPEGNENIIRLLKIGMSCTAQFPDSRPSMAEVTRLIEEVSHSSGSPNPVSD

Test [1] addresses T1, HopF2Pto-HA (Pseudomonas syringae pv. tomato DC3000) (UniProt Q88A90).
T1 sequence: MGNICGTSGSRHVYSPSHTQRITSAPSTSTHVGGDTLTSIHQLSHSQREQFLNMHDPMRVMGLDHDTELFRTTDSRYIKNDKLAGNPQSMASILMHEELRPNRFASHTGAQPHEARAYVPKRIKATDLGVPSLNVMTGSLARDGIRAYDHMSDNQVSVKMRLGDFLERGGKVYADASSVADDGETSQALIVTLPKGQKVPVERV
As to the kind of experiment: co-IP.

In test [2] the target is T2, HopF2Pto, yeast two-hybrid bait (QIS-seq) (Pseudomonas syringae pv. tomato DC3000) (UniProt Q88A90).
T2 sequence: T1 sequence
The test can be described thus: two-hybrid; yeast 2-hybrid screening coupled with next-generation sequencing (QIS-seq), HopF2Pto as the screened protein.

These are yes or no findings as the source states them, for the method shown. Binding calls can cover weak binding; strength is not graded here. For some assays here: Binding seen in cells or lysates may run through a third protein. For some assays here: Tags and fused reporters may be left off the sequences shown.

“QIAN SHOU KINASE 1 (QSK1), endogenous (from UniProt Q9M8T0)”: the binding result in test [1] was “binds”.
Take “QSK1, yeast two-hybrid prey (QIS-seq) (from UniProt Q9M8T0)”: the binding entry in test [2] is “binds”.
